Common to all, as to assay: co-IP; whole-cell lysates of THP-1-derived macrophages; immunoprecipitated with antibodies against ZBTB25, Sin3a or HDAC1, IgG as negative control; protein A/G Sepharose beads, 4°C; Western blot
Experiment [1] concerns the target T1, zinc finger and BTB domain 25 (ZBTB25) (human (endogenous in THP-1)) (UniProt P24278).
T1 sequence: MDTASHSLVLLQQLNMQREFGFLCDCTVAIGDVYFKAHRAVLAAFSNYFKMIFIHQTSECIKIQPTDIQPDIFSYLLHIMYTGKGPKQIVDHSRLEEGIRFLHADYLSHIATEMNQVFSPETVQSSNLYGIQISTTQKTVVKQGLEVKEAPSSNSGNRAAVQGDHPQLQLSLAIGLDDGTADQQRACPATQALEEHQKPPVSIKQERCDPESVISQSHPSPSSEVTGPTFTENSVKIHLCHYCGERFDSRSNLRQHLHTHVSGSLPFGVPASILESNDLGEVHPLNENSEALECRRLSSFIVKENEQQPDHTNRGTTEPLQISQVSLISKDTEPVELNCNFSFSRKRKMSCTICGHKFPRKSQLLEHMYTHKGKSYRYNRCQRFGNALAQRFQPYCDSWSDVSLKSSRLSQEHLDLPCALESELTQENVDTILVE

Protein sequences, listed by entry. Tags and fused reporters are not part of them.
UniProt Q13547: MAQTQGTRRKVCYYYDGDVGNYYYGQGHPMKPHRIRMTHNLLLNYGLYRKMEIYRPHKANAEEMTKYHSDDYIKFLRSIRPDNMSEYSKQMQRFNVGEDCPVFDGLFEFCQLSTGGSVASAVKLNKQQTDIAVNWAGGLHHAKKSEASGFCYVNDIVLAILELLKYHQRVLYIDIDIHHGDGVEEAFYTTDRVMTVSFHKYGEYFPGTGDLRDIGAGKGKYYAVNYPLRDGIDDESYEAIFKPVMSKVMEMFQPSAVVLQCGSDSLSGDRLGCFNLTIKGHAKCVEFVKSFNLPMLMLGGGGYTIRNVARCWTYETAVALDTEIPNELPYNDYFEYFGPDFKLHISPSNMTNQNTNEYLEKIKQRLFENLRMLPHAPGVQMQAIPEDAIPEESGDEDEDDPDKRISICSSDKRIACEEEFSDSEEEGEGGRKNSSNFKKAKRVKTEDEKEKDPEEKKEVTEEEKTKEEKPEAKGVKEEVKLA

In experiment [2] the target is histone deacetylase 1 (HDAC1) (human (endogenous in THP-1)) (UniProt Q13547).
Experiment [3] deals with T2, transcriptional corepressor Sin3a (human (endogenous in THP-1)) (UniProt Q96ST3).
T2 sequence: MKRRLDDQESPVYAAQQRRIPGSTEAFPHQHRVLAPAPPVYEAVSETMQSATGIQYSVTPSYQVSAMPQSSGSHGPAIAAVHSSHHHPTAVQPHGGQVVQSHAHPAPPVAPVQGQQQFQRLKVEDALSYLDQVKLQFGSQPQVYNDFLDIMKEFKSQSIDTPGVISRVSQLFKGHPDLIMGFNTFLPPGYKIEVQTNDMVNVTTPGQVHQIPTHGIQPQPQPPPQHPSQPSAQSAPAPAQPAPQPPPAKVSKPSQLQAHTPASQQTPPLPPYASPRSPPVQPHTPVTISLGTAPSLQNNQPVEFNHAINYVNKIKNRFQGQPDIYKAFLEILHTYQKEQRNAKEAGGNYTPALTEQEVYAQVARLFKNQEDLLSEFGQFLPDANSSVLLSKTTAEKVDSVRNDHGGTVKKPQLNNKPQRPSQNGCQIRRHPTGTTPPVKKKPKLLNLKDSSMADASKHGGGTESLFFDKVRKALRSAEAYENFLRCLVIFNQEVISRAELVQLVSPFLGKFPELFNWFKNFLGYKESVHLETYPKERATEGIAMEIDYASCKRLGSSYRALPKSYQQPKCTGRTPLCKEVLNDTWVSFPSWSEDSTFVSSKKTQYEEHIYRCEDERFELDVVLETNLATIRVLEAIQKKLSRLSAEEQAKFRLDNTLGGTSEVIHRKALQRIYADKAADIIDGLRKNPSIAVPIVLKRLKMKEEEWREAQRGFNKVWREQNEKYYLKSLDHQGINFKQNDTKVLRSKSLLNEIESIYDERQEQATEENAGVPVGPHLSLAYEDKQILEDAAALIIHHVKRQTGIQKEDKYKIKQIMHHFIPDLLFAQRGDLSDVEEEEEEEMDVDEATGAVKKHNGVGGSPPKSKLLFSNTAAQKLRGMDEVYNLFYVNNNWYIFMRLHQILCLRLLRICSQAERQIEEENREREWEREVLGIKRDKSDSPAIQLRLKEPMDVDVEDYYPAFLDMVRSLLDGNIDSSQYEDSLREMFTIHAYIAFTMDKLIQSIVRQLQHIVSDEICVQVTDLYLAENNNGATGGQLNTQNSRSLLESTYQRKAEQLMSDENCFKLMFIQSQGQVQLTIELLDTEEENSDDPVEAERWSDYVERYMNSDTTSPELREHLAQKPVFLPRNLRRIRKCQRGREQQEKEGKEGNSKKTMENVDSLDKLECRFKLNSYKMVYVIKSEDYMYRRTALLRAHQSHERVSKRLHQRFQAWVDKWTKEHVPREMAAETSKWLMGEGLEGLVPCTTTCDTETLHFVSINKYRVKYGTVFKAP

Results are given in words; binding and its absence hold for the method and conditions named. In cells and extracts the contact can be indirect. Some results given as binding are weak or reduced against the parent protein; the word gives no strength.

As for “histone deacetylase 1 (HDAC1) (from UniProt Q13547 1-482) (enzyme)”, in experiment [1], the binding result is reported as “binds”.

B1: zinc finger and BTB domain 25 (ZBTB25) (protein, UniProt P24278 1-435)
chain: MDTASHSLVLLQQLNMQREFGFLCDCTVAIGDVYFKAHRAVLAAFSNYFKMIFIHQTSECIKIQPTDIQPDIFSYLLHIMYTGKGPKQIVDHSRLEEGIRFLHADYLSHIATEMNQVFSPETVQSSNLYGIQISTTQKTVVKQGLEVKEAPSSNSGNRAAVQGDHPQLQLSLAIGLDDGTADQQRACPATQALEEHQKPPVSIKQERCDPESVISQSHPSPSSEVTGPTFTENSVKIHLCHYCGERFDSRSNLRQHLHTHVSGSLPFGVPASILESNDLGEVHPLNENSEALECRRLSSFIVKENEQQPDHTNRGTTEPLQISQVSLISKDTEPVELNCNFSFSRKRKMSCTICGHKFPRKSQLLEHMYTHKGKSYRYNRCQRFGNALAQRFQPYCDSWSDVSLKSSRLSQEHLDLPCALESELTQENVDTILVE
As to B1, the binding result in experiment [2] and in experiment [3] was “binds” throughout.

For the origin of these results see PMC8544881 (mSphere, 2021).
